Results are given in words; binding and its absence hold for the method and conditions named. In cells and extracts the contact can be indirect. Some entries that bind do so weakly or less than the wild type.
Assays:
FLAG-tagged USP7 = FLAG-tagged USP7 (UniProt Q93009); assay: co-IP; HEK293T cells transfected with the indicated constructs, lysed 48 h later in nuclear lysis buffer (50 mM TRIS pH 7.5, 0.5 M NaCl, 1% NP-40, 1% DOC, 0.1% SDS, 2 mM EDTA), SDS reduced to 0.07%; IP with anti-FLAG (FLAG-USP7) or anti-c-Myc antibody 4 h at 4 °C, protein-G agarose overnight at 4 °C; western blot
[1] = biological target: c-Myc (overexpressed from pcDNA3-c-Myc) (UniProt P01106); assay: as above

Chains of the proteins cited; added tags and fusions are not shown.
UniProt Q93009: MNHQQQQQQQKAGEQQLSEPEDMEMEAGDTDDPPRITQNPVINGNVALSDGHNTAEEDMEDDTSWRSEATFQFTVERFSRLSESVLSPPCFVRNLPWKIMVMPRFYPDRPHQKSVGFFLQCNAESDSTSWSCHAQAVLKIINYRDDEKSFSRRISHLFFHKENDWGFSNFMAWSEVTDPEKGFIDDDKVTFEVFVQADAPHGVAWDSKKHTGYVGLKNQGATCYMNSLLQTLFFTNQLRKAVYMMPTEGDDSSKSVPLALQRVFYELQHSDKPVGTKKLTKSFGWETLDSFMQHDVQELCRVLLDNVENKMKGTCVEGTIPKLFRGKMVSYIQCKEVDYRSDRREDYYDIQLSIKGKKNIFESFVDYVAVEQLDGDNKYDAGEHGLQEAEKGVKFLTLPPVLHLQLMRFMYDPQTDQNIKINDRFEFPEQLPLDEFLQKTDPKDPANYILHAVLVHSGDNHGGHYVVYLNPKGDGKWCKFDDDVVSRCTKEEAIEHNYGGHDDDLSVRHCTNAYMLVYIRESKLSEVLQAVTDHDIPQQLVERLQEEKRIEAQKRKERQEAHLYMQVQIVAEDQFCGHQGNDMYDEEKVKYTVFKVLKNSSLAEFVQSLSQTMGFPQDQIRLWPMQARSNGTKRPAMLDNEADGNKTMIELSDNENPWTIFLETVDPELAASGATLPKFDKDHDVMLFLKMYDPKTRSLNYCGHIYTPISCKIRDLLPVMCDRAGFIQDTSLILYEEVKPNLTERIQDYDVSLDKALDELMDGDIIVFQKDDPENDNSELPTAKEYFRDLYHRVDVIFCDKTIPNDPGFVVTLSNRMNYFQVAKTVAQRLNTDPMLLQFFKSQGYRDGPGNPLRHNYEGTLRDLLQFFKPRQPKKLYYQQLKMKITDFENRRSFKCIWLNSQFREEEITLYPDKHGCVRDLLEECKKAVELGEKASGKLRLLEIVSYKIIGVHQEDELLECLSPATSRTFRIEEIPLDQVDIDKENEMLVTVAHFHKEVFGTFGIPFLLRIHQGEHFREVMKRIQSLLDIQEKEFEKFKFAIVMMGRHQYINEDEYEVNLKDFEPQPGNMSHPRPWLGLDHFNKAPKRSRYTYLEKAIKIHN
UniProt P01106: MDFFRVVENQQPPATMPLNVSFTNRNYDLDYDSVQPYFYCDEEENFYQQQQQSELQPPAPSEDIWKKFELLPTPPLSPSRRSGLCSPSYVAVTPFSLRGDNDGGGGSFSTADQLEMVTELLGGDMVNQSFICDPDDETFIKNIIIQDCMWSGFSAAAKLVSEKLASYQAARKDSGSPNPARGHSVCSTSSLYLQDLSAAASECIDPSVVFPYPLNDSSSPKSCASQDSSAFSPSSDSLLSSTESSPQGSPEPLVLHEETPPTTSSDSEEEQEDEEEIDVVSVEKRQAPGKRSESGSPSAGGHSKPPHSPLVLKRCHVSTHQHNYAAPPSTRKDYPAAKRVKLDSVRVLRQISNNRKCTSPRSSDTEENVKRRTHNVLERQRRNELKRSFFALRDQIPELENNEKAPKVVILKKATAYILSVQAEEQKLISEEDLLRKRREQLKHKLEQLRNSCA
UniProt Q13049: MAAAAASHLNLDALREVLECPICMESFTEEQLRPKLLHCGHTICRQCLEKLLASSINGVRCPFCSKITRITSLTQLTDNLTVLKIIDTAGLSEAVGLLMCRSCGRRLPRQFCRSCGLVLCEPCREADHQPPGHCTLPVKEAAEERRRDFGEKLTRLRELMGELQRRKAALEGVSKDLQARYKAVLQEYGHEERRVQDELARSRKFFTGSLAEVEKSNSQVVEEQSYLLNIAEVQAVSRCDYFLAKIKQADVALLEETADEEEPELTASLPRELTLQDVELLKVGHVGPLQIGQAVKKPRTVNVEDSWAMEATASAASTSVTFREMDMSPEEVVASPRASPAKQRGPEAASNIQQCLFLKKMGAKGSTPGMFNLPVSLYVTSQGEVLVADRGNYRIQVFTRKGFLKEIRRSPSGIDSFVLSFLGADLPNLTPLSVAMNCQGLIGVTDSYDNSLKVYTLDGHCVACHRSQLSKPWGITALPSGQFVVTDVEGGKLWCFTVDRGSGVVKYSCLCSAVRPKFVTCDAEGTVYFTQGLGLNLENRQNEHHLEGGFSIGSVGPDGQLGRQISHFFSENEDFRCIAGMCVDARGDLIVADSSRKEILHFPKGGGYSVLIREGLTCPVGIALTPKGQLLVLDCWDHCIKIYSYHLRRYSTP

binding (FLAG-tagged USP7) | binding [1] | Substance
binds | – | c-Myc (overexpressed from pcDNA3-c-Myc) (from UniProt P01106 1-454)
binds | binds | GFP-tagged TRIM32 (from UniProt Q13049 1-653) (enzyme)
– | binds | FLAG-tagged USP7 (from UniProt Q93009 1-1102) (enzyme)

— paper PMC6460386
